## Results of single-concentration screens

By UniProt entry, the sequences of proteins in these tests, tags left out. Residues count along the entry.
UniProt I6X8D2, whole entry: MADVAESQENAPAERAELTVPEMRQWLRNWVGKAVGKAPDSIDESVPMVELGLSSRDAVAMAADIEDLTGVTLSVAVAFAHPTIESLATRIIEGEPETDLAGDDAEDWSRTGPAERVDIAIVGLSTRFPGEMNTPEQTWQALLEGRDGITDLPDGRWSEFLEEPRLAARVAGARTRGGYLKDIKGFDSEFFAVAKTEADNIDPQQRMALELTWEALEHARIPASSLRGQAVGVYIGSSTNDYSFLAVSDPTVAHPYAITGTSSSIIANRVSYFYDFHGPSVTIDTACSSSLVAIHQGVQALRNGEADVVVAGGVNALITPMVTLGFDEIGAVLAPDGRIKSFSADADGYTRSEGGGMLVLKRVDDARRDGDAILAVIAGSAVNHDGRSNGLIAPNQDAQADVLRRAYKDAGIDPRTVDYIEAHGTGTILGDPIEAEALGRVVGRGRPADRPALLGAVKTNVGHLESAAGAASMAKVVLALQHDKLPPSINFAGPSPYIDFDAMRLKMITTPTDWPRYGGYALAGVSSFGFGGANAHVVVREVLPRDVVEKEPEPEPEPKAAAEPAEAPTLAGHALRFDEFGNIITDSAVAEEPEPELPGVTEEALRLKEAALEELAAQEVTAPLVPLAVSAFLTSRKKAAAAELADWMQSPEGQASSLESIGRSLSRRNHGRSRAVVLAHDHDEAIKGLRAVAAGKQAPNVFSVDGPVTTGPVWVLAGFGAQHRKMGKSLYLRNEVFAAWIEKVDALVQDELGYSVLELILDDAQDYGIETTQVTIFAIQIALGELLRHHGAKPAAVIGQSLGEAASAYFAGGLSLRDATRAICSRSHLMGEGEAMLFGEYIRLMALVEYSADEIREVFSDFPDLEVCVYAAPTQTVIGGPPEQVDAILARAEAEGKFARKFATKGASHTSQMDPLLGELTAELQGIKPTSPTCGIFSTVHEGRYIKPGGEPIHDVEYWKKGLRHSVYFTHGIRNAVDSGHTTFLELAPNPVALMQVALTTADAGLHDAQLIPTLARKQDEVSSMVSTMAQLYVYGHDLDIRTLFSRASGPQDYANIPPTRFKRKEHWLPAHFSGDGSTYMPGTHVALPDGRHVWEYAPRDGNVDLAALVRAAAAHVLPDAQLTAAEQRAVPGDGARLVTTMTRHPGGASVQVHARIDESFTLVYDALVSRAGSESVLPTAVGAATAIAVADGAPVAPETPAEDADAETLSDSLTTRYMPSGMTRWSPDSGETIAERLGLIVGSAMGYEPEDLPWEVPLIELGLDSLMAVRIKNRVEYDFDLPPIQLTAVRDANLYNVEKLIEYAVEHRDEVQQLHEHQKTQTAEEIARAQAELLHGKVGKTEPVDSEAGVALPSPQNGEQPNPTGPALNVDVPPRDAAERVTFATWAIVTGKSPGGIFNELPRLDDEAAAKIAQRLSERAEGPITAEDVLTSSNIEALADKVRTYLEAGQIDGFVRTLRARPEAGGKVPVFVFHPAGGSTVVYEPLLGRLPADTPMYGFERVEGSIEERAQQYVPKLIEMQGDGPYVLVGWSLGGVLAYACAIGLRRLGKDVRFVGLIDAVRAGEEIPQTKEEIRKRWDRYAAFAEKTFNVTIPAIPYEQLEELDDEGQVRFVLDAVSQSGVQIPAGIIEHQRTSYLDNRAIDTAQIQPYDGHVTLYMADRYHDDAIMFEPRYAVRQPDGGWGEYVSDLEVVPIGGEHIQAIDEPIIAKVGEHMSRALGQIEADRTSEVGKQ
UniProt Q4DA54, 1-478: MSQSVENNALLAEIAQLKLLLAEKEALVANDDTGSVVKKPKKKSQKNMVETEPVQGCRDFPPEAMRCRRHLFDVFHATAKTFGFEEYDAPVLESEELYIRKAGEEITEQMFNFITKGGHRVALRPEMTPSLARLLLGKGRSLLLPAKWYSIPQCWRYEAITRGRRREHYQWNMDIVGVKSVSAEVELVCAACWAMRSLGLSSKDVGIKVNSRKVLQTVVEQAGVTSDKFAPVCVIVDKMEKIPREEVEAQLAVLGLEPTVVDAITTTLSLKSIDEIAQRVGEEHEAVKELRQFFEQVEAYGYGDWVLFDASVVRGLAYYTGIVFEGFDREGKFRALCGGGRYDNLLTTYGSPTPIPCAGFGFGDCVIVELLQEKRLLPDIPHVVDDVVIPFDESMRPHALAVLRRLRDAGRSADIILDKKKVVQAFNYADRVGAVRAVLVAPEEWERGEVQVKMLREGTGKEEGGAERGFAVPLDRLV

Values are the deposited “Percent Effect”, in %. The controls that fix the scale are not given in the record; negative values are as filed. This is an unselected part of the compounds tested. A dash means the value is not listed here; it may have been measured.

Pks13 thioesterase: 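Polyketide synthase Pks13, Mycobacterium tuberculosis (UniProt I6X8D2). Enzyme assay of the thioesterase domain of polyketide synthase 13; the read-out is not stated. Compounds at 30 µM. The record gives no direction; the compounds picked for IC50 retests had high values, so higher reads as stronger inhibition. Size under these conditions: about 67,000 compounds, about 300 of them at 50% or above in at least one test.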
TcHisRS: 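Histidine-tRNA ligase, Trypanosoma cruzi CL Brener (UniProt Q4DA54). Enzyme assay of histidyl-tRNA synthetase; the read-out is not stated. Concentration: 30 µM. Direction is inferred from retests: higher values go with stronger inhibition. Of about 69,000 compounds tested this way, about 31 (0.045%) reached 50% or more in at least one test.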

Compound	Pks13 thioesterase	TcHisRS
Cc1cccc(OCCC(=O)NC(C)c2nnc3n2CCC3)c1 (centres undefined)	-11.72%	10.17%
Cc1ccc(N2CCCC(NCC(=O)Nc3cc(C)nn3C)C2)nn1 (centres undefined)	-10.16%	4.871%
COc1c(C(=O)N2CCC(CSc3ccccc3)C2)c(C)nn1C (centres undefined)	-24.83%	3.175%
CC1CCN(S(=O)(=O)c2cccnc2)c2ccccc2S1 (centres undefined)	-23.16%	8.421%
CC(=O)N1CCOC(c2c(C(=O)NC(C)(C)C)sc3ccccc23)C1 (centres undefined)	7.305%	4.887%
Cc1ccn(-c2ccccc2NCc2scnc2C)n1	-19.36%	7.882%
Cc1ncc(CN2CCCC2c2ccc(C(=O)NCc3ccoc3)s2)s1 (centres undefined)	-5.755%	9.948%
CC(C)(C)c1cc(C[C@H]2CNCC[C@H]2CC(=O)NCc2cccs2)no1	-25.76%	4.478%
Cc1noc(C)c1C(=O)N1CCCC(c2nccn2Cc2cscn2)C1 (centres undefined)	-26.27%	-2.513%
Cn1cc(CN2CCc3ccc(=O)n(CC4CC4)c3CC2)cn1	-17.44%	6.145%
CCOc1ccc(CNCc2cccnc2N(C)C)cc1	-4.427%	0%
O=C(CCCn1cncn1)N1CCC2(CC1)[C@H](O)C[C@@H]2OCCO	-	8.235%
CCc1oc2ccc(NS(=O)(=O)CC)cc2c1C(=O)OC	1.189%	7.772%
COCCCN1Cc2cccc(NC(=O)c3cc(F)cc(F)c3)c2C1	-9.152%	10%
CN(C)S(=O)(=O)N1CCN(CC2CCOc3ccccc3C2)CC1 (centres undefined)	-8.506%	3.96%
CNc1nc(C(=O)N2CCCCC2c2ccc(CN(C)C)cc2)cs1 (centres undefined)	-12.43%	2.041%
CC(C)C(=O)NS(=O)(=O)CCc1ccccc1	-27.84%	1.961%
Cc1nc(CCNC(=O)C2CC(=O)N(C(C)(C)C)C2)sc1Cl (centres undefined)	-3.871%	0.9804%
O=C(NCCCn1ccnc1)N1CCN(c2cccs2)CC1	-37.32%	6.464%
CN(C)[C@@H]1CN(C(=O)c2ccc(C#N)cc2)[C@@H]2CCCO[C@H]12	-13.67%	2.454%
CCn1cc(-c2nccnc2C2CCCN(C(C)=O)C2)cn1 (centres undefined)	-3.98%	-0.3759%
COc1ncccc1CN1C[C@H]2CCN(C(C)C)C[C@H]2C1	8.321%	-2.793%
CC(C)c1nc(CN(CC(N)=O)C(C)C)cs1	-7.921%	3.429%
Cc1noc(C)c1CN(C)CC(=O)N1CCc2sccc2C1	-10.34%	0.5764%
COCc1ncc(CN(CCN(C)C)Cc2ccc(C)s2)cn1	-2.291%	3.933%
Cc1noc(Cl)c1CCC(=O)N1CCN(c2ncccn2)CC1	-4.042%	2.273%
FC(F)(F)COc1cccc(-c2nc3c([nH]2)CCNC3)c1	-9.907%	2.4%
Cc1nn(C)cc1-c1cc(-c2cn(C)nc2C)n(CC(=O)NC2CC2)n1	-7.18%	3.96%
Cn1cc(CN2CCOCC3(CCN(C4CCOCC4)C3)C2)cn1 (centres undefined)	-11.19%	10.74%
CCCc1ccc(S(=O)(=O)NCCNC(=O)c2ccoc2)cc1	-5.415%	6.122%
CNC(=O)c1cnc(/C=C/c2cc(OC)c3c(c2)OCCO3)s1	24.42%	-1.724%
COc1nc(C)ccc1CNC(=O)NC(C)Cc1c(C)nn(C)c1C (centres undefined)	-5.8%	8.621%
Cc1ccc(CN2CCC3(CCN(S(=O)(=O)c4ccccc4)C3)C2)o1 (centres undefined)	-35.37%	5.825%
CCN1CC[C@@]2(C(=O)N3CCOCC3)CCN(C(=O)CC(C)C)CC[C@@H]12	-15.64%	0.9709%
O=C1C[C@H]2CC[C@@H](CN1)N2C1CCSCC1	-1.937%	-2.4%
CN(C)c1ncnc2c1CCN(c1cccc(F)c1)CC2	-34.83%	8.046%
COc1ccc2c(c1)CCCN2C(=O)NCCc1cnn(C)c1	-20.02%	3.665%
CN(C)C[C@H]1C[C@@H]2CN(Cc3ccco3)C[C@@H]2O1	-32.42%	6.796%
c1cncc(COC[C@@H]2CCC[C@@]23CNCCO3)c1	-33.19%	11.64%
Cc1cccc(OCCC(=O)N(C)CC(C)C#N)c1C (centres undefined)	-0.4473%	-2.5%
CCc1ncc(CN(C)C(=O)Nc2cccnc2N2CCCC2)s1	8.346%	-1.515%
Cn1cccc1C(=O)NCc1cn2c(n1)CN(c1ncccn1)CC2	-4.759%	-2.041%
Cc1ccc(N2CCCN(C(=O)CCCn3ccnc3C)CC2)nn1	-0.3323%	4.972%
Cc1nsc(N2CCc3sccc3C2)n1	-44.37%	-0.5236%
CC(C)c1nnc2n1CCN(C(=O)c1ccc(OCC3CC3)nc1)C2	-14.07%	-1.961%
CC1=CC(C)(C)N(CN2C(=O)c3ccccc3C2=O)c2ccccc21	-2.331%	-5.319%
COc1ccc(C(=O)N2CCC3(CCC(=O)N(C(C)C)C3)CC2)cc1C	-13%	7.778%
O=C(NCC1CCC1)c1ccnc(-n2ccnc2)c1	-1.596%	1.754%
CC(C)c1ccccc1NC(=O)N1C[C@@H]2CC[C@H](C1)N(C)C2=O	-5.375%	7.407%
CC(C)N(C(=O)CCc1cccc(F)c1)C1CCOCC1	-16.86%	9.392%
CCCNCc1ccc(-c2cc(N)nc3[nH]ccc23)cc1	-20.51%	-2.155%
CN(Cc1ccc(F)c(F)c1)Cc1cc2c(cc1Br)OCCO2	-8.813%	3.704%
CC(C)CNC(=O)[C@H]1CCS(=O)(=O)[C@@H]2CN(Cc3ccc(Cl)cc3)C[C@H]12	-	3.743%
Fc1ccc(CN2CCc3ncnc(C4CC4)c3CC2)cc1	-1.261%	10.05%
CC(C)CNC(=O)C1=NOC2(CCN(Cc3ccoc3)C2)C1 (centres undefined)	-9.774%	2.222%
Cc1ccc(CN2CC3(CCN(S(=O)(=O)c4ccccc4)C3)C2)o1	-617%	5.825%
CCc1ccc(C2CC(=O)Nc3n[nH]cc32)o1 (centres undefined)	-21.77%	6.358%
O=C(c1cccs1)N1CCOCC2(C1)CN(c1ccccc1)C(=O)CO2 (centres undefined)	-13.89%	7.619%
CCN1Cc2c(C(=O)NCC3CC3)ncn2-c2ccccc2S1(=O)=O	-37.29%	0.8264%
Cn1cc(NS(=O)(=O)CC2CCCCO2)cn1 (centres undefined)	-20.73%	11.67%
c1cnc(N2CCOCC3(CCCN(Cc4cc[nH]n4)C3)C2)nc1 (centres undefined)	-11.17%	6.952%
Cn1nc(Cn2cccn2)c2c1CN(Cc1ccoc1)C2	-26.83%	3.681%
CC(C)CC(=O)N1CCCC2(CC(C(=O)Nc3ccccc3)=NO2)C1 (centres undefined)	-17.46%	4.673%
COc1ccc(CN2CC[C@H]3O[C@@H](C(=O)NCC4CC4)CC[C@H]32)cc1	-4.098%	1.869%
CC(=O)c1ccc(-n2c(C)cn(CCS(C)(=O)=O)c2=O)cc1	18.51%	0%
CCOCC(=O)N1Cc2[nH]nc(COCC3CC3)c2C1	15.51%	2.532%
O=C(c1nnn(-c2ccc(F)cc2)n1)N1CCC(O)CC1	-2.339%	-1.031%
Cc1cccc(C(=O)N2CC[C@@H]3[C@H]2CCC(=O)N3c2ccccc2)n1	-37.51%	4.082%
CCc1cnc(NCC(c2ccncc2)N2CCOCC2)nc1 (centres undefined)	-17.54%	5.319%
Cc1ccc(OCc2nnc(SCC3CCCN(C)C3)o2)cc1 (centres undefined)	-3.612%	3.448%
CS(=O)(=O)c1ccc(C(=O)NCc2nc3cc(F)ccc3[nH]2)cc1	15.04%	8.911%
CN(C)CC(C)(C)Cn1cnc(-c2ccccc2)c1-c1cccc(O)c1	-15.31%	11.34%
O=C(c1ncccn1)N1CCC[C@]2(C[C@@H](Oc3ncccc3F)CO2)C1	5.27%	1.754%
COc1cc2c(cc1OC)CN(C(=O)NCC1CCCO1)CC2 (centres undefined)	-3.889%	14.07%
COc1ccc(CN2C[C@@H]3COC[C@]3(COc3cccnc3)C2)cc1	0.1562%	1.604%
COCCN(Cc1ccc(F)cc1Cl)C(=O)c1cccc[n+]1[O-]	-30.92%	-4.065%
CNC(=O)CN1CCN(C(=O)Nc2ccc(C)s2)CC1	3.364%	9.474%
CCOCc1ncn2c1CN(C(=O)Nc1ccccc1CC)CC2	-36.75%	0%
Cc1cccc(C)c1Nc1noc2c1CN(C(=O)c1ccnn1C)CC2	-3.031%	1.13%
Cc1cnn(C2CCCN(C(=O)c3ccc(C(N)=O)cn3)C2)c1 (centres undefined)	-24%	2.874%
COc1cccc(-n2nnc(C(=O)N3CCN(C(C)=O)CC3)c2C)c1	-16.53%	4.399%
COCCCN1CC2(CCC1=O)CCN(Cc1cc(C(C)C)no1)CC2	14.14%	0.5025%
O=C(Cc1ccc2c(c1)CCO2)N1CCCCC1Cn1cccn1 (centres undefined)	-27.07%	0%
COC(=O)c1ccc(Cl)c(NS(=O)(=O)c2cn(C)cn2)c1	-12.04%	2.041%

Repeated from the top, 7 entries:

Cc1cccc(OCCC(=O)NC(C)c2nnc3n2CCC3)c1 (centres undefined) read Pks13 thioesterase: -11.72%; TcHisRS: 10.17%.
Cc1ccc(N2CCCC(NCC(=O)Nc3cc(C)nn3C)C2)nn1 (centres undefined) read Pks13 thioesterase: -10.16%; TcHisRS: 4.871%.
COc1c(C(=O)N2CCC(CSc3ccccc3)C2)c(C)nn1C (centres undefined) read Pks13 thioesterase: -24.83%; TcHisRS: 3.175%.
CC1CCN(S(=O)(=O)c2cccnc2)c2ccccc2S1 (centres undefined) read Pks13 thioesterase: -23.16%; TcHisRS: 8.421%.
CC(=O)N1CCOC(c2c(C(=O)NC(C)(C)C)sc3ccccc23)C1 (centres undefined) read Pks13 thioesterase: 7.305%; TcHisRS: 4.887%.
Cc1ccn(-c2ccccc2NCc2scnc2C)n1 read Pks13 thioesterase: -19.36%; TcHisRS: 7.882%.
Cc1ncc(CN2CCCC2c2ccc(C(=O)NCc3ccoc3)s2)s1 (centres undefined) read Pks13 thioesterase: -5.755%; TcHisRS: 9.948%.

Data taken from ChEMBL document CHEMBL3988442, “University of Dundee, Small-Polar-MMV Screening Library” (2021).